Measured values from publication PMC7979793.
These are yes or no findings as the source states them, for the method shown. In cells and extracts the contact can be indirect. A yes stands for co-enrichment or nearness to the bait. Other partners may have been found. Sequences can lack the tags named with a protein.

Sequences of proteins named here, by UniProt entry; tags and fusion partners are left off.
UniProt P34931: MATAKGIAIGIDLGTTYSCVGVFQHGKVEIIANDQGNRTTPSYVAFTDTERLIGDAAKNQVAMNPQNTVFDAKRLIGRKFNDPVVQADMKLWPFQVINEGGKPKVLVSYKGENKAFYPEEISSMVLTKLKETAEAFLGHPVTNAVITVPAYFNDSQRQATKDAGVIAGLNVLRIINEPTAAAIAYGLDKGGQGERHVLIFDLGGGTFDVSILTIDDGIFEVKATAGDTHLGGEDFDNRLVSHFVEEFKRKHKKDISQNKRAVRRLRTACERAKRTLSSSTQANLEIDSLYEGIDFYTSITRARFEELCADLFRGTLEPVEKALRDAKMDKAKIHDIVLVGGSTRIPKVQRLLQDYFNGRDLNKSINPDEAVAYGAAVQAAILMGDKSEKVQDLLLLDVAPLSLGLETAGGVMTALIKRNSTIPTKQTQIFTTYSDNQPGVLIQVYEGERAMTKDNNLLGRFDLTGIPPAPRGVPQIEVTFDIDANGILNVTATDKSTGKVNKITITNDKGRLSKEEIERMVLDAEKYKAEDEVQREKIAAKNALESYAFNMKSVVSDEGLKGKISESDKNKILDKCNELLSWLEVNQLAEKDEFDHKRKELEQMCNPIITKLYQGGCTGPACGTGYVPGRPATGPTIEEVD

Biological target: T1, 3xFLAG-Vaspin (visceral adipose tissue-derived serine protease inhibitor, SERPINA12), expressed in HK2 cells (human) (UniProt Q8IW75)
T1 sequence: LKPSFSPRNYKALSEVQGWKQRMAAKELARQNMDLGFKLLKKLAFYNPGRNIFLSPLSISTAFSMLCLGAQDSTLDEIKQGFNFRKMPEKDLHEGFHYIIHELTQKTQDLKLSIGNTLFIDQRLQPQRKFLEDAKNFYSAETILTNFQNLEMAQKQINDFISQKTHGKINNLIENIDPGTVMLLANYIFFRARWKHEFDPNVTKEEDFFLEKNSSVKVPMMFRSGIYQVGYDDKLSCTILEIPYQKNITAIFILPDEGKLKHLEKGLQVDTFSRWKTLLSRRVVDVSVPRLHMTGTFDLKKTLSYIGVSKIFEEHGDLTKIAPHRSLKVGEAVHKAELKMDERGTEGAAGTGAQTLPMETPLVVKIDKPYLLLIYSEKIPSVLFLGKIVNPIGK
Test: affinity purification with mass spectrometry; HK2 cell lysates overexpressing p3xFLAG-Vaspin or p3xFLAG, ANTI-FLAG M2 Affinity Gel; bands visible only with p3xFLAG-Vaspin excised, trypsin in-gel digest, LC-MS/MS

## heat shock protein family A (Hsp70) member 1 like (HSPA1L), endogenous in HK2 cells (from UniProt P34931 1-641)
  binding: binds
